# In PubChem BioAssay AID2685 (National Center for Advancing Translational Sciences (NCATS), 2010):
# The other results are listed elsewhere or left out. Shown are side measurements of this screen, not its main read-out; they come without a call. Compounds called inactive in the main read-out are mostly missing here. Words in brackets tell the shape of the fitted curve; partial curves, single points and poor fits give uncertain potencies. Where a SMILES comes first, the peptide text is derived from it. [ ]: non-standard residue; d: D form. ξ: configuration not given here. ξF = NC(Cc1ccccc1)C(=O)O
# Experiment: qHTS Assay for Lipid Storage Modulators in Drosophila S3 Cells;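 for cell number change: cells counted by Cell Tracker Red CMTPX staining in the red channel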
# Conditions: BODIPY lipid droplet fluorescence, 18-24 h; for cell number change: measured here: cell count max response, cells fed with added oleic acid
# Method in brief: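 Drosophila S3 cells got compounds at several concentrations plus oleic acid (400 uM solution). Laser-scanning cytometry with 488 nm excitation read lipid droplets at 500-530 nm and cells at 575-640 nm. Percent activity was relative to 20 uM Triacsin C.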
# [1] = measured here: lipid fluorescence (Fed channel) AC50, cells fed with added oleic acid
# [2] = measured here: cell number channel AC50, cells fed with added oleic acid
Compound,AC50 [1],cell number change,AC50 [2]
COc1cc(/C=C/C(=O)OCC(=O)N2CCN(S(=O)(=O)c3ccc(C)cc3C)CC2)cc(Cl)c1OC,"18.4 µM [rising, single point]",–,–
S=C(NCC1CCCO1)N1CCc2ccccc2C1 (centres undefined),–,38.2%,"0.651 µM [rising, full curve, poor fit]"
COc1ccc(NC(=O)CCNC(=O)Cn2ccc3ccccc3c2=O)cc1OC,–,15.8%,–
Nc1ccccc1SCC(=O)N1CCc2ccccc21,"23.1 µM [rising, single point]",18.8%,–
CCOC(=O)C(Cc1ccccc1)NC(=O)CNC(C)=O (centres undefined) (Ac-Gly-[ξF]-OEt),–,-29.5%,"0.13 µM [falling, full curve, poor fit]"
COc1cccc(C(=O)OCC(=O)Nc2ccccc2N2CCOCC2)c1,"10.3 µM [rising, partial curve, poor fit]",22.4%,–
CCOc1ccc(CNC(=O)CCCOc2cc(=O)n(C)c3ccccc23)cc1,"0.651 µM [rising, single point]",–,–
O=C1COc2ccc(C(=O)COC(=O)c3ccco3)cc2N1,"11.6 µM [falling, partial curve, poor fit]",-19%,–
O=C(c1cc2nc(-c3ccc(F)cc3)cc(C(F)(F)F)n2n1)N1CCOCC1,–,-5.8%,–
CCC(=O)Nc1ccc(S(=O)(=O)N2CCc3ccccc3C2)cc1,"0.146 µM [rising, full curve, poor fit]",–,–
Cc1ccc(C(=O)c2cn[nH]c2-c2ccccc2O)cc1,"32.6 µM [falling, single point]",-21.9%,–
CN1CCN(C(=O)c2cc(S(=O)(=O)Nc3ccccc3F)c(Cl)cc2Cl)CC1,–,9.51%,"5.17 µM [falling, single point]"
Cc1ccc2c(c1)-n1c(nc3cc(F)ccc3c1=O)C(Cc1ccccc1)NC2=O (centres undefined),"25.9 µM [rising, single point]",7.12%,–
O=C1c2ccccc2NC(c2ccc(O)c(O)c2)N1c1ccccc1Cl (centres undefined),"20.6 µM [rising, single point]",-7.46%,–
CCC(C)C(=O)Nc1ccccc1N1CCN(c2ccc(F)cc2)CC1 (centres undefined),"0.13 µM [rising, full curve, poor fit]",17.9%,"0.0517 µM [rising, full curve, poor fit]"
CC1CCN(S(=O)(=O)N2CCN(C(=O)c3ccc4c(c3)OCO4)CC2)CC1,–,6.84%,–
CC(C)Cc1ccc(C#N)c(SCC(N)=O)n1,"1.46 µM [rising, partial curve, poor fit]",1.11%,–
CCOC(=O)C1(Cc2ccc(OC)cc2)CCN(C(=O)c2cc(C)nn2C)CC1,"29.1 µM [falling, single point]",-3.4%,"6.51 µM [falling, single point]"
COc1ccc(CCNC(=O)CCS(=O)(=O)c2ccc3nc(C)sc3c2)cc1OC,"0.13 µM [rising, full curve, poor fit]",5.76%,–
COc1ccc(OC)c(C(=O)c2ccc(C(=O)Nc3ccc(NC(C)=O)cc3)cc2)c1,–,85.9%,"16.4 µM [rising, partial curve, poor fit]"
COc1ccc(-c2cc(=O)oc3c(C)c(OCC(=O)NCCCn4ccnc4)ccc23)cc1,–,13.4%,"0.366 µM [rising, partial curve, poor fit]"

# For reference, part of the list above.
Compound,AC50 [1],cell number change,AC50 [2]
Nc1ccccc1SCC(=O)N1CCc2ccccc21,"23.1 µM [rising, single point]",18.8%,–
CCOC(=O)C(Cc1ccccc1)NC(=O)CNC(C)=O (centres undefined) (Ac-Gly-[ξF]-OEt),–,-29.5%,"0.13 µM [falling, full curve, poor fit]"
COc1cccc(C(=O)OCC(=O)Nc2ccccc2N2CCOCC2)c1,"10.3 µM [rising, partial curve, poor fit]",22.4%,–
CCOc1ccc(CNC(=O)CCCOc2cc(=O)n(C)c3ccccc23)cc1,"0.651 µM [rising, single point]",–,–
O=C1COc2ccc(C(=O)COC(=O)c3ccco3)cc2N1,"11.6 µM [falling, partial curve, poor fit]",-19%,–
O=C(c1cc2nc(-c3ccc(F)cc3)cc(C(F)(F)F)n2n1)N1CCOCC1,–,-5.8%,–
CCC(=O)Nc1ccc(S(=O)(=O)N2CCc3ccccc3C2)cc1,"0.146 µM [rising, full curve, poor fit]",–,–
Cc1ccc(C(=O)c2cn[nH]c2-c2ccccc2O)cc1,"32.6 µM [falling, single point]",-21.9%,–
CN1CCN(C(=O)c2cc(S(=O)(=O)Nc3ccccc3F)c(Cl)cc2Cl)CC1,–,9.51%,"5.17 µM [falling, single point]"
Cc1ccc2c(c1)-n1c(nc3cc(F)ccc3c1=O)C(Cc1ccccc1)NC2=O (centres undefined),"25.9 µM [rising, single point]",7.12%,–
O=C1c2ccccc2NC(c2ccc(O)c(O)c2)N1c1ccccc1Cl (centres undefined),"20.6 µM [rising, single point]",-7.46%,–
CCC(C)C(=O)Nc1ccccc1N1CCN(c2ccc(F)cc2)CC1 (centres undefined),"0.13 µM [rising, full curve, poor fit]",17.9%,"0.0517 µM [rising, full curve, poor fit]"
CC1CCN(S(=O)(=O)N2CCN(C(=O)c3ccc4c(c3)OCO4)CC2)CC1,–,6.84%,–
CC(C)Cc1ccc(C#N)c(SCC(N)=O)n1,"1.46 µM [rising, partial curve, poor fit]",1.11%,–
CCOC(=O)C1(Cc2ccc(OC)cc2)CCN(C(=O)c2cc(C)nn2C)CC1,"29.1 µM [falling, single point]",-3.4%,"6.51 µM [falling, single point]"
COc1ccc(CCNC(=O)CCS(=O)(=O)c2ccc3nc(C)sc3c2)cc1OC,"0.13 µM [rising, full curve, poor fit]",5.76%,–

# Next part

Compound,AC50 [1],cell number change,AC50 [2]
CCOc1ccc(CCNC(=O)C2CCCN(c3nn4c(=O)cc(C)nc4s3)C2)cc1 (centres undefined),"29.1 µM [rising, single point]",-6.15%,–
O=C(CCc1c[nH]c2ccccc12)N1CCN(c2ccc(O)cc2)CC1,–,-16.1%,–
C=CCn1c(CCC(O)CCCCC)n[nH]c1=S (centres undefined),"0.259 µM [rising, partial curve, poor fit]",-20.5%,–
Cc1ccccc1OCc1nc2ccccc2c(=O)n1N,–,–,"0.00461 µM [rising, full curve, poor fit]"
COc1ccccc1N1CCN(C(=O)c2cc3c(s2)-c2ccccc2OC3)CC1,"2.91 µM [falling, single point]",9.51%,–
Cc1ccc(C)c(N2CCN(CC3CC=CCC3)CC2)c1 (centres undefined),"23.1 µM [falling, single point]",-25.7%,–
CC(C)(C)C(=O)O/N=C(\N)c1ccc(Oc2cc(Cl)cc(Cl)c2)c([N+](=O)[O-])c1,–,-8.56%,–
CCOC(=O)Nc1ccc2c(CN3CCC(C(=O)OC)CC3)cc(=O)oc2c1,"3.66 µM [rising, partial curve]",7.44%,–
Nc1c(Br)cc(Br)c(N2CCCC2=O)c1Br,"23.1 µM [falling, partial curve]",-39.4%,"0.0058 µM [falling, full curve, poor fit]"
Cc1ccc(S(=O)(=O)Nc2cc(-c3ccc(Cl)cc3)nn2C)cc1,–,7.74%,–
Cc1ccccc1C(=O)N1CCC(C(=O)Nc2cc(C(F)(F)F)ccc2N2CCCC2)CC1,"0.731 µM [falling, single point]",8.66%,–
O=S(=O)(NCC(c1ccco1)N1CCCCC1)c1ccccc1C(F)(F)F (centres undefined),"14.6 µM [falling, single point]",-4.79%,–
CC(Nc1oc(-c2ccco2)nc1C#N)c1ccccc1 (centres undefined),"6.51 µM [rising, partial curve]",14.8%,–
CN(Cc1ccccc1)C(=O)C1CCCN1S(=O)(=O)c1ccc2c(c1)n(C)c(=O)c(=O)n2C (centres undefined),"3.66 µM [falling, partial curve, poor fit]",-3.78%,–
Cc1cc(C)cc(C(=O)N(Cc2ccco2)c2c(N)n(Cc3ccccc3)c(=O)[nH]c2=O)c1,"0.00517 µM [falling, full curve, poor fit]",19.2%,–
Cc1nc2ccccc2c2nc(NC(=O)Cc3ccccc3)nn12,"1.64 µM [rising, partial curve]",-9.69%,–
COc1cc(NC(=O)Nc2cc(C)on2)cc(OC)c1OC,"0.116 µM [falling, full curve, poor fit]",–,–
COCCNC(=O)c1ccc(Cl)c(S(=O)(=O)Nc2cccc(C)c2C)c1,"0.00461 µM [falling, full curve, poor fit]",-17.4%,–
NS(=O)(=O)c1ccc(NC(=O)Cn2nc(C(=O)O)c3ccccc3c2=O)cc1,"6.51 µM [rising, single point]",-20%,"1.64 µM [falling, partial curve, poor fit]"
O=C(c1cc(Cl)ccc1[N+](=O)[O-])n1cnc2ccccc21,–,-11%,–
Cc1ccc(S(=O)(=O)Nc2cccc(-c3ccc(N4CCCCCC4)nn3)c2)c(C)c1,"29.1 µM [falling, single point]",-12.2%,–

Compound,AC50 [1],cell number change,AC50 [2]
O=C(NCCc1ccc(Cl)cc1)C1CCCN1C(=O)Nc1ccccc1 (centres undefined),"32.6 µM [rising, single point]",1.29%,–
CN(C)c1ccnc2sc(C(=O)NCc3ccccc3)c(N)c12,"1.16 µM [rising, partial curve]",19.4%,–
O=C(COC(=O)c1ccc(F)cc1F)Nc1cccnc1Cl,"0.164 µM [falling, full curve, poor fit]",3.88%,"0.116 µM [falling, full curve, poor fit]"
NC(=O)[C@@H]1CCNc2c(I)cc([N+](=O)[O-])cc2C(=O)N[C@@H](CCC(=O)O)C(=O)N[C@@H](CO)C(=O)N1,"16.4 µM [rising, partial curve, poor fit]",–,–
Cc1csc(NC(=O)C2CC(=O)N(c3ccc4c(c3)OCCO4)C2)n1 (centres undefined),"0.651 µM [rising, single point]",-15.9%,"0.731 µM [rising, single point]"
CS(=O)(=O)N1CCC(C(=O)Nc2ccccc2Br)CC1,"3.26 µM [falling, partial curve]",1.46%,–
Cc1cc(OCc2nc(-c3ccc(NC(=O)c4cccnc4)cc3)no2)ccc1Cl,–,12.6%,–
COC(=O)c1cc(C#N)c(=O)[nH]c1C,"6.51 µM [rising, single point]",-14.5%,"3.66 µM [rising, single point]"
COc1ccc(N2CCN(C(=O)c3ccc(Br)o3)CC2)cc1,"16.4 µM [rising, single point]",–,–
O=C(Nc1nc2ccccc2s1)Nc1ccc(F)cc1F,"29.1 µM [rising, single point]",10.2%,–
COCCN(C(=O)CCC(=O)Nc1cc(C)on1)C(C(=O)NC(C)(C)C)c1ccc(OC)cc1 (centres undefined),–,19%,–
CC(=O)Nc1ccc(C)cc1,–,-24.9%,–
O=C(COC(=O)c1ccccc1C(=O)c1ccc(Cl)c([N+](=O)[O-])c1)NC1CC1,"4.61 µM [falling, single point]",–,–
CC(=O)c1c(C)[nH]c(C(=O)OCC(=O)Nc2cc(C(F)(F)F)ccc2N2CCOCC2)c1C,–,-4.87%,–
CN(CC(=O)Nc1ccccc1Br)C(=O)c1ccncc1,–,14.6%,"3.66 µM [rising, single point]"
COc1ccc(OC)c(NS(=O)(=O)Cc2ccccc2)c1,–,-1.11%,–
CN(C(=O)COc1ccc(S(=O)(=O)N2CCOCC2)cc1[N+](=O)[O-])C1CCS(=O)(=O)C1 (centres undefined),"2.31 µM [falling, partial curve]",17.4%,–
O=C(Nc1ccc2c(c1)OCO2)C(c1ccc(Cl)cc1)N1CCC2(CC1)OCCO2 (centres undefined),"20.6 µM [falling, single point]",-28%,–
Cn1c(=O)oc2cc(S(=O)(=O)NCCC(=O)N3CCN(c4ccccc4F)CC3)ccc21,"23.1 µM [rising, single point]",22.5%,–
